Experimental data reported in PubChem BioAssay (NCATS).
Some of the results follow. These are further read-outs of the screen, such as a control signal, another cell line or another target. No call is given for them. The list favours compounds with an active or inconclusive main result. The note in brackets gives the kind of curve behind each potency; many fits are weak.

test: A High-Content qHTS Against Drug Library for the Identification of Small Molecules that Inhibit DYT1 Early Onset Primary Dystonia-Associated Cell Pathology (AID 1645839); conditions: HEK293 Flp-In EGFP-delE TorsinA, punctate imaging, 48 h; measured here: cell count cytotoxicity
Outline: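 Induced EGFP-delE TorsinA cells are imaged after 48 h of compound treatment. Punctate fusion-protein distribution gives the %pathology value, while nuclei counts flag toxicity. Wild-type EGFP-hTOR1A cells define the normal pattern.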

Row | Compound | AC50
1 | NC(=O)Cc1cccc(C(=O)c2ccccc2)c1N | 35.5 µM [rising, single point]
2 | CN1CCC(N(Cc2cccs2)c2ccccc2)CC1 | 7.08 µM [falling, full curve, poor fit]
3 | C=C1C(=C/C=C2\CCC[C@]3(C)[C@@H]([C@H](C)/C=C/[C@@H](O)C4CC4)CC[C@@H]23)C[C@@H](O)C[C@@H]1O | 10 µM [falling, partial curve]
4 | COc1cc(/C=C/C(=O)O[C@H]2CC[C@]34C[C@]35CC[C@]3(C)[C@@H]([C@H](C)CCC=C(C)C)CC[C@@]3(C)[C@@H]5CC[C@H]4C2(C)C)ccc1O | 22.4 µM [rising, single point]
5 | CC(C)C[C@@H]1[C@H](c2ccccc2)OC(=O)N1CCCN1CCCCCC1 | 2.82 µM [falling, partial curve, poor fit]
6 | O=C(NCCN1CCOCC1)c1ccc(Cl)cc1 | 28.2 µM [rising, partial curve, poor fit]
7 | COc1ccc2cc1Oc1ccc(cc1)C[C@H]1c3c(cc4c(c3Oc3cc5c(cc3OC)CCN(C)[C@@H]5C2)OCO4)CCN1C | 0.891 µM [falling, full curve]
8 | CC(=O)OCC(=O)[C@@]12OC(C)(C)O[C@@H]1C[C@H]1[C@@H]3C[C@H](F)C4=CC(=O)C=C[C@]4(C)[C@@]3(F)[C@@H](O)C[C@@]12C | 15.8 µM [rising, partial curve, poor fit]
9 | COc1ccc2cc([C@H](C)C(=O)O)ccc2c1 | 35.5 µM [rising, single point]
